{"source": "patent US8097585B2", "about": "“Methods of treating inflammation by administration of heme oxygenase-1 and products of heme degradation” (priority 2002, dated 2012)", "system": "DBA/2 islets in diabetic B6AF1 recipients", "test": "Allogeneic islet transplantation, graft survival and tolerance test", "assay_type": "in vivo, mice", "procedure": "Animals. Male DBA/2, B6AF1 and DBA/1 mice 6-8 week of age (Jackson) are used in the experiments. Mice were kept for 2 weeks at 4 mice/cage and fed normal laboratory chow before using for the experiment.\nTreatment protocol. Recipients were rendered diabetic using streptozotocin (STZ, 225 mg/kg). Five days after STZ administration, animals with two consecutive blood glucose levels exceeding 350 mg/dl are used as recipients. Islets (500) are transplanted under the kidney capsule of the recipients.\nReagents. Cobalt protoporphyrin (CoPPIX, Porphyrin Products, Logan, Utah), biliverdin dihydrochloride and bilirubin (ICN Biomedicals Inc., OH) were dissolved in a small amount of 0.2 M NaOH, subsequently adjusted to a pH of 7.4 with 1 M HCl, and diluted in 1×PBS. The stock solutions (CoPPIX=2 mg/ml, biliverdin=3.2 mg/ml, bilirubin=0.5 mg/ml) were aliquoted and kept at −70° C. until used. Light exposure was limited as much as possible.\nInduction of HO-1/Administration of biliverdin/bilirubin. When given to the donor, CoPPIX (20 mg/kg) was given 24 hours before islet isolation to induce HO-1 expression. To verify HO-1 expression in different organs after CoPP treatment, tissue samples are collected 24 hours after treatment and snap frozen in liquid nitrogen. Immunohistological analysis of HO-1 expression is performed using an anti-HO-1 antibody. […]", "note": "For at least one compound, name, drawing or mass did not settle the structure.", "data": [{"smiles": "C=CC1=C(C)/C(=C/c2[nH]c(Cc3[nH]c(/C=C4\\NC(=O)C(C)=C4C=C)c(C)c3CCC(=O)O)c(CCC(=O)O)c2C)NC1=O", "note": "[bilirubin]", "values": [{"measurement": "antigen specific tolerance", "setting": "long-term survival animals", "result": "seen in some"}, {"measurement": "long-term surviving islets", "setting": "treatment of the recipient only", "result": "significant percentage of long-term surviving islets"}]}]}
